Structures can show the parent of a compound that is named as a salt. ± gives the standard deviation of the averaged measurements. Some of the results follow. Most values come without repeats; read them as rough.
Test system: RAW 264.7
Assay: cell viability (MTT) relative to vehicle control; higher = more viable cells
Settings: stimulus: HMGB1 5 ug/ml, 18 h
[1] = compound concentration: 1 ug/ml

Compound `CC1CN([C@H]2C[C@H](O)[C@@H](CO)O2)C(=O)NC1=O` (some centres undefined) [5,6-Dihydrothymidine] has a cell viability [1] of 93.8%.

Work on `C[C@@H](O[C@H]1OCCN(Cc2n[nH]c(=O)[nH]2)[C@H]1c1ccc(F)cc1)c1cc(C(F)(F)F)cc(C(F)(F)F)c1` [Aprepitant] yielded a cell viability (compound concentration: 3 uM) of 112%.

With `Oc1cccc(O)c1` the cell viability (compound concentration: 3 uM) was 97.8%.

Compound `Cc1cc2c(s1)Nc1ccccc1N=C2N1CCN(C)CC1` [Olanzapine] has a cell viability (compound concentration: 3 uM) of 96.4 ± 12%.

Compound `Cc1cc2c(s1)Nc1ccccc1N=C2N1CCN(C)CC1` has a cell viability (compound concentration: 3 uM) of 101 ± 13%.

With `O=C1c2ccccc2C(=O)C1c1ccc(Br)cc1` the cell viability (compound concentration: 3 uM) was 113%.

For `NC(=O)CC[C@H](N)C(=O)O` [L-Glutamine], the cell viability (compound concentration: 3 uM) was 112%.

Work on `CC=CC1=C(C(=O)O)N2C(=O)[C@@H](NC(=O)[C@H](N)c3ccc(O)cc3)[C@H]2SC1` yielded a cell viability (compound concentration: 3 uM) of 111%.

For `Nc1nc(OCC2CCCCC2)c2[nH]cnc2n1`, the cell viability (compound concentration: 3 uM) was 103%.

`COc1ccccc1-c1oc2ccccc2c(=O)c1O` [3-Hydroxy-2'-methoxyflavone] was tested, and the cell viability [1] was 99.4%.

`CC(C)OC(=O)C(C)(C)Oc1ccc(C(=O)c2ccc(Cl)cc2)cc1` [Fenofibrate] showed a cell viability (compound concentration: 3 uM) of 104 ± 2.3%.

`CC(C)OC(=O)C(C)(C)Oc1ccc(C(=O)c2ccc(Cl)cc2)cc1` was tested, and the cell viability (compound concentration: 3 uM) was 114%.

With `Cc1c(O)c(=O)n(-c2ccccc2)n1C` [Antipyrine, 4-hydroxy] the cell viability (compound concentration: 3 uM) was 81.2%.

With `C=C1CC/C=C(\C)CC[C@@H]2[C@@H]1CC2(C)C` [(-)-trans-Caryophyllene] the cell viability [1] was 98%.

`C[C@H]1[C@H](C)CC[C@]2(C(=O)O[C@@H]3O[C@H](CO[C@@H]4O[C@H](CO)[C@@H](O[C@@H]5O[C@H](C)[C@H](O)[C@@H](O)[C@H]5O)[C@H](O)[C@H]4O)[C@@H](O)[C@H](O)[C@H]3O)CC[C@]3(C)C(=CC[C@@H]4[C@@]5(C)C[C@@H](O)[C@H](O)[C@@](C)(CO)[C@@H]5CC[C@]43C)[C@H]12` [Asiaticoside] was tested, and the cell viability [1] was 101%.

Compound `CCOc1ccc2nc(S(N)(=O)=O)sc2c1` has a cell viability (compound concentration: 3 uM) of 109%.

`c1coc(CNc2ncnc3[nH]cnc23)c1` [Kinetin hydrochloride] showed a cell viability [1] of 109%.

`CN1CCCN(C(c2ccccc2)c2ccc(Cl)cc2)CC1` (centres undefined) [Homochlorcyclizine dihydrochloride] showed a cell viability (compound concentration: 3 uM) of 104%.

For `C[C@@H]1C[C@H]2[C@@H]3CCC4=CC(=O)C=C[C@]4(C)[C@@]3(Cl)[C@@H](O)C[C@]2(C)[C@@]1(OC(=O)c1ccco1)C(=O)CCl` [Mometasone furoate], the cell viability (compound concentration: 3 uM) was 124%.

`CCOC(=O)c1cnc2c(cnn2CC)c1NN=C(C)C` [Etazolate hydrochloride] showed a cell viability (compound concentration: 3 uM) of 92.2%.

`CCOC(=O)c1cnc2c(cnn2CC)c1NN=C(C)C` [Etazolate] gave a cell viability (compound concentration: 3 uM) of 90.5%.

Compound `Nc1ncnc2c1ncn2C1OC(COP(=O)(O)O)C(O)C1O` (centres undefined) [Adenosine 5'-monophosphate monohydrate] has a cell viability (compound concentration: 3 uM) of 92.2%.

In the case of `CCCCc1ccc2[nH]c(NC(=O)OC)nc2c1` [Parbendazole], the cell viability (compound concentration: 3 uM) is reported as 80.2%.

For `COc1cc2ncnc(Nc3cccc(Cl)c3)c2cc1OC` [Tyrphostin AG 1478], the cell viability (compound concentration: 3 uM) was 117%.

For `O=c1oc2cc(O)ccc2s1`, the cell viability (compound concentration: 3 uM) was 115%.

`CCc1cccc(CC)c1NC(=O)CN(CC(=O)O)CC(=O)O` [Etifenin] was tested, and the cell viability (compound concentration: 3 uM) was 89.5%.

`CN/C(=N\CCSCc1nc[nH]c1C)NC#N` [Cimetidine] showed a cell viability (compound concentration: 3 uM) of 96.3 ± 4.1%.

`CN/C(=N\CCSCc1nc[nH]c1C)NC#N` showed a cell viability (compound concentration: 3 uM) of 103%.

Work on `c1ccc(C2CN3CCSC3=N2)cc1` (single isomer, unassigned; (-)) [(-)-Tetramisole hydrochloride] yielded a cell viability (compound concentration: 3 uM) of 97.9%.

With `C/C(=C\C(=O)OCCCCCCCCC(=O)O)C[C@@H]1OC[C@H](C[C@@H]2O[C@H]2[C@@H](C)[C@H](C)O)[C@@H](O)[C@H]1O` the cell viability (compound concentration: 3 uM) was 108 ± 1.6%.

For `N#C/C(=C\c1ccc(O)c(O)c1)C(=O)NCCCc1ccccc1` [Tyrphostin AG 555], the cell viability (compound concentration: 3 uM) was 98.9%.

Compound `O=C(O)c1cc(/N=N/c2ccc(S(=O)(=O)Nc3ccccn3)cc2)ccc1O` [Sulfasalazine] has a cell viability (compound concentration: 3 uM) of 96.2 ± 1.7%.

With `O=C(O)c1cc(/N=N/c2ccc(S(=O)(=O)Nc3ccccn3)cc2)ccc1O` the cell viability (compound concentration: 3 uM) was 100 ± 9.6%.

Work on `Cc1cn([C@H]2CC[C@@H](CO)O2)c(=O)[nH]c1=O` [2',3'-Dideoxythymidine] yielded a cell viability [1] of 99.6%.

Compound `O=C(O)c1cc2cc(Cc3cccnc3)ccc2o1` [Furegrelate sodium] has a cell viability (compound concentration: 3 uM) of 109%.

`Cc1ncc([N+](=O)[O-])n1CC(C)O` (centres undefined) [Secnidazole] gave a cell viability (compound concentration: 3 uM) of 100 ± 14%.

In the case of `Cc1ncc([N+](=O)[O-])n1CC(C)O` (centres undefined) [1-(2-Methyl-5-nitro-imidazol-1-yl)-propan-2-ol], the cell viability (compound concentration: 3 uM) is reported as 99.9%.

`Cc1ncc([N+](=O)[O-])n1CC(C)O` (centres undefined) gave a cell viability (compound concentration: 3 uM) of 108%.

`C/C=C(/C(=C/C)c1ccc(O)cc1)c1ccc(O)cc1` [Dienestrol] showed a cell viability (compound concentration: 3 uM) of 101%.

Compound `C/C=C(/C(=C/C)c1ccc(O)cc1)c1ccc(O)cc1` has a cell viability (compound concentration: 3 uM) of 98.8%.

`OC1(c2ccc(Cl)cc2)CCN(Cc2c[nH]c3ccccc23)CC1` was tested, and the cell viability (compound concentration: 3 uM) was 98.4%.

With `O=C(O)c1ccccc1OP(=O)(O)O` [Fosfosal] the cell viability (compound concentration: 3 uM) was 95.4%.

`O=C(O)c1ccccc1OP(=O)(O)O` gave a cell viability (compound concentration: 3 uM) of 107%.

In the case of `COc1ccccc1N1CCN(CCN(C(=O)c2ccc(I)cc2)c2ccccn2)CC1` [p-MPPI hydrochloride], the cell viability (compound concentration: 3 uM) is reported as 115%.

With `CC1=C(/C=C/C(C)=C/C=C/C(C)=C/CO)C(C)(C)CCC1` the cell viability (compound concentration: 3 uM) was 113%.

In the case of `CC1=C(/C=C/C(C)=C/C=C/C(C)=C/CO)C(C)(C)CCC1` [Retinol; Vitamin A, synthetic, 95.%], the cell viability [1] is reported as 112%.

For `Nc1ncnc2c1ncn2[C@@H]1O[C@H](COP(=O)(O)OP(=O)(O)OP(=O)(O)OP(=O)(O)OC[C@@H]2O[C@H](n3cnc4c(N)ncnc43)C(O)[C@@H]2O)[C@H](O)C1O` (some centres undefined) [P1,P4-Di(adenosine-5')tetraphosphate triammonium], the cell viability (compound concentration: 3 uM) was 99.8%.

Compound `Nc1cc(N2CCCCC2)nc(N)[n+]1[O-]` [Minoxidil] has a cell viability (compound concentration: 3 uM) of 100 ± 15%.

`Nc1cc(N2CCCCC2)nc(N)[n+]1[O-]` gave a cell viability (compound concentration: 3 uM) of 108%.

For `C=C(C)[C@H]1CC=C(C)C(=O)C1` [D(+)-Carvone], the cell viability [1] was 106%.

In the case of `COc1ccc2cc([C@H](C)C(=O)O)ccc2c1` [(-)-Naproxen sodium], the cell viability (compound concentration: 3 uM) is reported as 105%.

`COc1ccc2cc([C@H](C)C(=O)O)ccc2c1` was tested, and the cell viability (compound concentration: 3 uM) was 98.7%.

`COc1ccc2cc([C@H](C)C(=O)O)ccc2c1` [Naproxen] showed a cell viability (compound concentration: 3 uM) of 99.5 ± 10%.

`O=C(O)c1cc(=O)[nH]c(=O)[nH]1` gave a cell viability (compound concentration: 3 uM) of 100%.

Reference: the supplement of paper PMC3682954
